According to PMC9263144:
These are yes or no findings as the source states them, for the method shown. Binding seen in cells or lysates may run through a third protein. Some entries that bind do so weakly or less than the wild type. One block for each molecule: values may come before it.

Amino acid sequences for entries named in this document (tags omitted). A change or cut given only in a name is not applied to a line headed by its entry.
UniProt Q8NFU7: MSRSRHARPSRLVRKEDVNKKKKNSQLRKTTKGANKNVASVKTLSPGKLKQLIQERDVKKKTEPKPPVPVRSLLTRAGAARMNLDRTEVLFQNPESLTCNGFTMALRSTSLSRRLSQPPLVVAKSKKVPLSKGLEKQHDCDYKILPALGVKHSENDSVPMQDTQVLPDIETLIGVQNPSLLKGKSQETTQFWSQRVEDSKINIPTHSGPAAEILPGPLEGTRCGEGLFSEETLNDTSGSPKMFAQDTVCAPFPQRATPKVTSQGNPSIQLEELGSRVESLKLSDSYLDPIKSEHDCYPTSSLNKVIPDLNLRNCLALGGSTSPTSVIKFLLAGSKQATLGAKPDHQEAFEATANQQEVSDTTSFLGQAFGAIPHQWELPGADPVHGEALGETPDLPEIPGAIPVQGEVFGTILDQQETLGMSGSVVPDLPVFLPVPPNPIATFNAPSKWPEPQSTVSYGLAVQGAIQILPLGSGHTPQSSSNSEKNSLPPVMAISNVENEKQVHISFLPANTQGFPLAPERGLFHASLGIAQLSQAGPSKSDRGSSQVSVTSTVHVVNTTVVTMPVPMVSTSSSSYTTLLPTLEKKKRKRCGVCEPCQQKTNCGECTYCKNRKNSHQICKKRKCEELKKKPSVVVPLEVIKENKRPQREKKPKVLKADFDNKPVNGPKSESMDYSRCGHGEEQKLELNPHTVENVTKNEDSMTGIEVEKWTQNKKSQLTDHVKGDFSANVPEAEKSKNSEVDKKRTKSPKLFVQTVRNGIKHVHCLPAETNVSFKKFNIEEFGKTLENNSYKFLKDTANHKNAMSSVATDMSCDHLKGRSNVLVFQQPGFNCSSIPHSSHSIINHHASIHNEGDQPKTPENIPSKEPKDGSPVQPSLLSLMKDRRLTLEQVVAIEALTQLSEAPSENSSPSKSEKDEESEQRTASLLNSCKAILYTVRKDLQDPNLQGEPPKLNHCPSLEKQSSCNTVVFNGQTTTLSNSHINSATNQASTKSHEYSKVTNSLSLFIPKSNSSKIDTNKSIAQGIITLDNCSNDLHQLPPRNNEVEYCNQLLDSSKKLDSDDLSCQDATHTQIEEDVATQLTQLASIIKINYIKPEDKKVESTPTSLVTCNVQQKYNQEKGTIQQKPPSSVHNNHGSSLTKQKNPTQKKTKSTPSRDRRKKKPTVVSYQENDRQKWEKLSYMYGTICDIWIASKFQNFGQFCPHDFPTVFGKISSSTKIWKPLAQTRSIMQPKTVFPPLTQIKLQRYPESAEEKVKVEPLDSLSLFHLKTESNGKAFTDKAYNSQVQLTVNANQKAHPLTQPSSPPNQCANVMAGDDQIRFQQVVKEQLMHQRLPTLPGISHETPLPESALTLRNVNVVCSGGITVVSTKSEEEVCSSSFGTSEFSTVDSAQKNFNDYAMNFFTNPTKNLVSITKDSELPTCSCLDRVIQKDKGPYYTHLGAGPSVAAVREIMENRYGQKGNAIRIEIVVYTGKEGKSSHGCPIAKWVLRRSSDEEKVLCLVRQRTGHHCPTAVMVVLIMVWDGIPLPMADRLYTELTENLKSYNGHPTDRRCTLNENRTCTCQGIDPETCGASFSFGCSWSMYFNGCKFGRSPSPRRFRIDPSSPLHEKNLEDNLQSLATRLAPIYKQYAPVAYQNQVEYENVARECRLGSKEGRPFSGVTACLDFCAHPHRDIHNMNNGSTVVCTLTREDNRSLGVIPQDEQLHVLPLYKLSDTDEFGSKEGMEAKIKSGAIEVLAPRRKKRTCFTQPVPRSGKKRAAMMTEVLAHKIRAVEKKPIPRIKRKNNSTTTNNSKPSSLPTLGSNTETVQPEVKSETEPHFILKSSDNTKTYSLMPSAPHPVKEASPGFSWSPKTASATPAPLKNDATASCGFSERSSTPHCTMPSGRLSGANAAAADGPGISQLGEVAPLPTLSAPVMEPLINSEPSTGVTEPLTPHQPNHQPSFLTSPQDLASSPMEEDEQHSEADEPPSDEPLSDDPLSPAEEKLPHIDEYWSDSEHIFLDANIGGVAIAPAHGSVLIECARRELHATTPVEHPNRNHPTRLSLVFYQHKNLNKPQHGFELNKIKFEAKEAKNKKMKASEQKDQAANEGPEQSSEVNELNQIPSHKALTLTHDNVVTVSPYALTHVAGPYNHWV

Tests used:
[1] = biological target: T1, FOXA2 (human (endogenous in H1 hESC-derived cells)) (UniProt Q9Y261); assay: co-IP; lysate (4 mg) of TKO-TET1FL cells at the DE stage, sonicated, with or without 20 U nuclease at 4 °C for 30 min; precipitated with mouse anti-FLAG or goat anti-FOXA2 antibody overnight at 4 °C and protein A/G magnetic beads; washes with 0.3 M KCl and 0.1 M KCl buffers; immunoblot of TET1 or FOXA2; TKO cells as control
T1 sequence: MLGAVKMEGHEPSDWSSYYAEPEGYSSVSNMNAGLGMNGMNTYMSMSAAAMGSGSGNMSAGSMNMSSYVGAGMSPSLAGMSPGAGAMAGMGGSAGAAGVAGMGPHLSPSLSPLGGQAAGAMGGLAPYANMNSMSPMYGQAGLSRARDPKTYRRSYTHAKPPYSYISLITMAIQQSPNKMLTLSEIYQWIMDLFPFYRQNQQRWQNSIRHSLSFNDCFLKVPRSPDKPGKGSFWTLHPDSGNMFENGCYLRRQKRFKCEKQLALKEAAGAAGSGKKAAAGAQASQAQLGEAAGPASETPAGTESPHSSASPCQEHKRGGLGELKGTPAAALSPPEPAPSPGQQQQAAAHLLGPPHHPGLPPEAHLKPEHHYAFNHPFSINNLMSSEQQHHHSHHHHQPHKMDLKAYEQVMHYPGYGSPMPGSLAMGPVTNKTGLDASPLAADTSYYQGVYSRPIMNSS

[2] = biological target: C-terminal FLAG-tagged human full-length TET1 (human) (UniProt Q8NFU7); assay: as above

binding [1]: binds
Molecule: C-terminal FLAG-tagged human full-length TET1 (from UniProt Q8NFU7-1 1-2136) (enzyme)

binding [2]: binds
B1: FOXA2 (protein, UniProt Q9Y261 1-457)
chain: T1 sequence
